# Results published in PubChem BioAssay AID504847 (National Center for Advancing Translational Sciences (NCATS), 2011).
# Chains of the proteins cited; added tags and fusions are not shown. Lines headed by an entry give the natural chain unless they say otherwise; changes in a name come on top.
# UniProt P11473: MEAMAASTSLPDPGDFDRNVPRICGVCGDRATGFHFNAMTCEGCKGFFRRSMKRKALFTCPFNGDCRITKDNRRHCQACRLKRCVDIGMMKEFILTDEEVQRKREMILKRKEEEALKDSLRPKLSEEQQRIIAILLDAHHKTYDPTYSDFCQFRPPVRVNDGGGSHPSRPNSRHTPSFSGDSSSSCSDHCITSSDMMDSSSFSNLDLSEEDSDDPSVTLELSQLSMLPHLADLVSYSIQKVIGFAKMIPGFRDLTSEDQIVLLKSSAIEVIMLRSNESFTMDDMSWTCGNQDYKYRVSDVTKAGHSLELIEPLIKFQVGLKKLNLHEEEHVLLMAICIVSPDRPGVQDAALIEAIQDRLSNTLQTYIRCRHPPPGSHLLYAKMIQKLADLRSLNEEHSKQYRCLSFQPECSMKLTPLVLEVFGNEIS
# Among all 400,000 compounds or so, about 3,700 (0.93%) were called active. The inconclusive results got no clear call from the source; some entries with a clear call stand among them for comparison. Calls come from the whole dose curve; as a rule, active = well fitted inhibition curve with a large enough effect; inconclusive = small, poorly fitted or top-dose-only effect, or another doubt; inactive = no such curve, though single readings can be large or run the other way. Where the call is inconclusive, the potency comes from a doubtful curve fit.
# Target: Vitamin D3 receptor (Homo sapiens) (UniProt P11473)
# Assay: Inhibitors of the vitamin D receptor (VDR): qHTS
# Settings: VDR-SRC2-3 peptide fluorescence polarization, 2 h; max response, negative = inhibition: stronger effect = lower value
# How it was run: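 Inhibition of the VDR/SRC2-3 peptide interaction is quantified by fluorescence polarization. Compounds (23 nl, pintool) incubate with the reagents for 2 hours at ambient room temperature.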
# % is set by controls: 0 for no effect and ±100 for the full control effect; potency is the fitted concentration of half-maximal effect.
SMILES,"max response, negative = inhibition",Potency
COc1ccc(-c2ccc3c(c2)S(=O)(=O)c2cccc(C(=O)NC[C@@H]4CCCO4)c2C3=O)cc1OC,inactive: -1.03%,
COc1cc(/C=C2\N=C(C)OC2=O)cc(Cl)c1OC(C)=O,,"inconclusive: 79.4 µM [inhibitor, single point]"
CC(=O)c1cccc(NC(=O)c2noc3c2CSc2ccccc2-3)c1,inactive: 8.94%,
Cc1ccc(C(=O)NC2CC3CCC(C2)N3C)cc1 (stereo not drawn),inactive: 1.62%,
COc1ccc(-c2cc(C(=O)NCCCN3CCOCC3)c3ccccc3n2)cc1OC,,"inconclusive: 89.1 µM [inhibitor, single point]"
Cc1nn(Cc2ccc(F)cc2)c(Cl)c1/C=N/NC(=O)c1ccccc1,inactive: 14%,
Cc1oc(-c2ccc(Cl)cc2)nc1CS(=O)CC(=O)NC1CC1 (stereo not drawn),inactive: -11.1%,
O=C(CSCC(=O)Nc1cccc([N+](=O)[O-])c1)Nc1ccccc1,,"inconclusive: 31.6 µM [inhibitor, partial curve, poor fit]"
Cc1ccc(OCCC(=O)OCC(=O)Nc2ccc(N3CCOCC3)cc2)cc1,inactive: 6.52%,
COc1ccc(C(=O)/C=C2/C(=O)Nc3ccccc32)cc1,,"inconclusive: 35.5 µM [inhibitor, full curve, poor fit]"
Cc1occc1C(=O)/C(C#N)=C/c1ccc(O)c(Br)c1,,"inconclusive: 89.1 µM [inhibitor, single point]"
O=C(COc1ccc(S(=O)(=O)N2CCOCC2)cc1)N1CCOCC1,,"inconclusive: 89.1 µM [inhibitor, single point]"
COc1ccc(C2=Nn3c(nc4sc(C(=O)Nc5cccc(C)c5)c(C)c4c3=O)SC2)cc1,inactive: 7.57%,
COc1ccccc1NC(=O)CCn1nc(-c2ccccc2)c2ccccc2c1=O,,active: 56.2 µM
CCC(C(=O)Oc1c(C(C)C)cccc1C(C)C)c1ccccc1 (stereo not drawn),,"inconclusive: 56.2 µM [inhibitor, partial curve, poor fit]"
CC1(C)Cc2c(C#N)c(N3CCN(C(=O)c4ccco4)CC3)nc(-c3ccco3)c2CS1,,"inconclusive: 89.1 µM [inhibitor, partial curve]"
CCOC(=O)c1c(C)oc2c1c(CN1CCN(C(=O)OCC)CC1)c(O)c1ccccc12,,active: 50.1 µM
CC1(OC(=O)c2cccs2)C(=O)C=C2C=C3CCCN3C=C2C1=O (stereo not drawn),,"inconclusive: 10 µM [inhibitor, single point]"
NC1=C(c2ccc(F)cc2)C(=O)CS1,,"inconclusive: 56.2 µM [inhibitor, partial curve, poor fit]"
Cc1sc2nc(C3CC3)nc(SCC(=O)N3CCc4ccccc4C3)c2c1C,,"inconclusive: 89.1 µM [inhibitor, single point]"
COCCCN1CCc2[nH]c(=S)[nH]c(=O)c2C1,,"inconclusive: 79.4 µM [inhibitor, single point]"
CCOC(=O)c1cccc(Nc2ccc3cc(S(=O)(=O)N4CCCCC4)ccc3n2)c1,inactive: 15.6%,

# A draw from above in order of SMILES length, rising:
SMILES,"max response, negative = inhibition",Potency
COc1ccc(C(=O)/C=C2/C(=O)Nc3ccccc32)cc1,,"inconclusive: 35.5 µM [inhibitor, full curve, poor fit]"
O=C(COc1ccc(S(=O)(=O)N2CCOCC2)cc1)N1CCOCC1,,"inconclusive: 89.1 µM [inhibitor, single point]"
CCOC(=O)c1c(C)oc2c1c(CN1CCN(C(=O)OCC)CC1)c(O)c1ccccc12,,active: 50.1 µM

# Following part.

SMILES,"max response, negative = inhibition",Potency
Cc1ccccc1OCC(=O)N/N=C/c1ccc(N2CCOCC2)o1,,active: 39.8 µM
CCn1c(COc2cccc(C)c2)nnc1SCC(=O)NC1CCCC1,,"inconclusive: 79.4 µM [inhibitor, single point]"
O=C1C(c2ccccc2)=[N+]([O-])c2ccccc21,,active: 3.98 µM
ON(Cc1c(F)cccc1Cl)Cc1c(F)cccc1Cl,inactive: -21.8%,
CSc1nnc(-c2cccc(NC(=O)c3ccccc3)c2)n1C,,"inconclusive: 89.1 µM [inhibitor, single point]"
CSc1cccc(CNC(=O)C2CCC(=O)N(Cc3cccc(C(F)(F)F)c3)C2)c1 (stereo not drawn),inactive: -12.2%,
Cc1cccc(NC(=S)NC(=O)/C=C/c2ccco2)c1,,"inconclusive: 63.1 µM [inhibitor, partial curve, poor fit]"
CCOc1ccc(C(=O)CC(Sc2ccc(C)cc2)C(=O)O)cc1 (stereo not drawn),,"inconclusive: 56.2 µM [inhibitor, partial curve, poor fit]"
CCCOC(=O)N1CCN(/[N+]([O-])=N/Oc2ccc([N+](=O)[O-])cc2[N+](=O)[O-])CC1,,"inconclusive: 56.2 µM [inhibitor, partial curve, poor fit]"
CC1=NN(c2ccc(C)cc2)C(=O)/C1=C/c1ccc(-c2cc([N+](=O)[O-])ccc2O)o1,inactive: -6.07%,
CCCCC(=O)Nc1nnc(-c2ccco2)o1,inactive: 12.3%,
NS(=O)(=O)c1ccc(NC(=S)NCc2ccc(F)cc2)cc1,,"inconclusive: 79.4 µM [inhibitor, single point]"
COC(=O)c1c(NC(=O)/C=C/C(=O)O)sc(C)c1-c1ccc(C)cc1,,"inconclusive: 25.1 µM [inhibitor, full curve]"
CC(C)=CCC/C(C)=C/CC/C(C)=C/CC/C(C)=C/CC1=C(C)C(=O)c2ccccc2C1=O,,"inconclusive: 44.7 µM [inhibitor, partial curve, poor fit]"
O=C(Nc1ccc(Br)cn1)c1ccc2nccnc2c1,,"inconclusive: 89.1 µM [inhibitor, single point]"
N#CC(Sc1ccccn1)c1ccc(Cl)cc1Cl (stereo not drawn),inactive: -9.62%,
CN1CCN(NS(=O)(=O)c2ccc(Cl)s2)CC1,,"inconclusive: 79.4 µM [inhibitor, single point]"
O=C(/C=C/c1ccc2ccccc2n1)c1cc(Br)ccc1O,,"inconclusive: 12.6 µM [inhibitor, partial curve, poor fit]"
CCOC(=O)C1=C(C)Nc2nc(=S)[nH]n2C1c1ccc(Cl)cc1 (stereo not drawn),,active: 79.4 µM
Cc1ccccc1S(=O)(=O)N1[C@@H](c2ccc(Cl)cc2)C(C(=O)O)=CC[C@H]1c1ccc(Cl)cc1,,"inconclusive: 56.2 µM [inhibitor, partial curve, poor fit]"
COc1cc(/C=C2\C(=O)N(c3ccc(S(N)(=O)=O)cc3)N=C2C)ccc1OC(=O)c1ccco1,,"inconclusive: 50.1 µM [inhibitor, partial curve, poor fit]"
